This note sets out measurements from publication PMC5539076.

The exact form of at least one protein or probe is not confirmed. A weaker result is weaker than the reference pair of the same experiment.

The test system of the series is mCherry-AlpA. Kind of series: EMSA. The following applies: 0-16 uM protein, 500 ng DNA, EMSA: 30 min at 30 C, 10% native PAGE at 4 C, 150 V, binding buffer, recombinant protein, protein details: N-terminal mCherry, His-tag (pET16B-mCH-AlpA).

As for “CGTATTATGTCTCGAGGTATTATGTACTTCGGTATTATGTACTTCGGTATTATGTACTTCGGTATTATGTACTTCGGTATTATGTACTTCGGTATTATGTA / ACATAATACCGAAGTACATAATACCGAAGTACATAATACCGAAGTACATAATACCGAAGTACATAATACCGAAGTACATAATACCTCGAGACATAATACGCATG [scrambled alpS]”, the binding result (residual unspecific binding, smear of lower shifted bands) is listed as “binds more weakly”.

Take “CTTAATTGTCCTCGAGTTAATTGTCACTTCGTTAATTGTCACTTCGTTAATTGTCACTTCGTTAATTGTCACTTCGTTAATTGTCACTTCGTTAATTGTCCATGTCA / AGACATGGACAATTAACGAAGTGACAATTAACGAAGTGACAATTAACGAAGTGACAATTAACGAAGTGACAATTAACGAAGTGACAATTAACTCGAGGACAATTAAGCATG [alpS (seven alpS repeats)]”: the binding result (sharp, highly shifted band) is on record as “binds”.
